{"source": "paper PMC7753147", "about": "“High-throughput determination of protein affinities using unmodified peptide libraries in nanomolar scale” (iScience, 2020)", "binders": {"B1": {"name": "full-length gephyrin (FL-geph), recombinant (protein, UniProt Q03555 1-768)", "chain": "MATEGMILTNHDHQIRVGVLTVSDSCFRNLAEDRSGINLKDLVQDPSLLGGTISAYKIVPDEIEEIKETLIDWCDEKELNLILTTGGTGFAPRDVTPEKFPTFPFCGLQKGATKEVIEREAPGMALAMLMGSLNVTPLGMLSRPVCGIRGKTLIINLPGSKKGSQECFQFILPALPHAIDLLRDAIVKVKEVHDELEDLPSPPPPLSPPPTTSPHKQTEDKGVQCEEEEEEKKDSGVASTEDSSSSHITAAALAAKIPDSIISRGVQVLPRDTASLSTTPSESPRAQATSRLSTASCPTPKQIRRPDESKGVASRVGSLKVQSRCSSKENILRASHSAVDITKVARRHRMSPFPLTSMDKAFITVLEMTPVLGTEIINYRDGMGRVLAQDVYAKDNLPPFPASVKDGYAVRAADGPGDRFIIGESQAGEQPTQTVMPGQVMRVTTGAPIPCGADAVVQVEDTELIRESDDGTEELEVRILVQARPGQDIRPIGHDIKRGECVLAKGTHMGPSEIGLLATVGVTEVEVNKFPVVAVMSTGNELLNPEDDLLPGKIRDSNRSTLLATIQEHGYPTINLGIVGDNPDDLLNALNEGISRADVIITSGGVSMGEKDYLKQVLDIDLHAQIHFGRVFMKPGLPTTFATLDIDGVRKIIFALPGNPVSAVVTCNLFVVPALRKMQGILDPRPTIIKARLSCDVKLDPRPEYHRCILTWHHQEPLPWAQSTGNQMSSRLMSMRSANGLLMLPPKTEQYVELHKGEVVDVMVIGRL"}, "B2": {"name": "native gephyrin within tissue lysate (protein, UniProt Q8BUV3 1-769)", "chain": "MATEGMILTNHDHQIRVGVLTVSDSCFRNLAEDRSGINLKDLVQDPSLLGGTISAYKIVPDEIEEIKETLIDWCDEKELNLILTTGGTGFAPRDVTPEATKEVIEREAPGMALAMLMGSLNVTPLGMLSRPVCGIRGKTLIINLPGSKKGSQECFQFILPALPHAIDLLRDAIVKVKEVHDELEDLPSPPPPLSPPPTTSPHKQTEDKGVQCEEEEEEKKDSGVASTEDSSSSHITAAALAAKIPDSIISRGVQVLPRDTASLSTTPSESPRAQATSRLSTASCPTPKQIRRPDESKGVASRVGSLKARLPSCSSTYSVSEVQSRCSSKENILRASHSAVDITKVARRHRMSPFPLTSMDKAFITVLEMTPVLGTEIINYRDGMGRVLAQDVYAKDNLPPFPASVKDGYAVRAADGPGDRFIIGESQAGEQPTQTVMPGQVMRVTTGAPIPCGADAVVQVEDTELIRESDDGTEELEVRILVQARPGQDIRPIGHDIKRGECVLAKGTHMGPSEIGLLATVGVTEVEVNKFPVVAVMSTGNELLNPEDDLLPGKIRDSNRSTLLATIQEHGYPTINLGIVGDNPDDLLNALNEGISRADVIITSGGVSMGEKDYLKQVLDIDLHAQIHFGRVFMKPGLPTTFATLDIDGVRKIIFALPGNPVSAVVTCNLFVVPALRKMQGILDPRPTIIKARLSCDVKLDPRPEYHRCILTWHHQEPLPWAQSTGNQMSSRLMSMRSANGLLMLPPKTEQYVELHKGEVVDVMVIGRL"}}, "key": {"[1]": {"target": "GlyR β WT peptide 414…428 on the μSPOT positional-scan microarray", "test": "peptide or protein array; μSPOT full positional scan of GlyR β 414-428 probed with recombinant gephE or FL-geph; intensities normalized to the WT sequence; both purified"}, "[2]": {"target": "GlyR β WT peptide 414…428 on the μSPOT positional-scan microarray", "test": "peptide or protein array; μSPOT full positional scan of GlyR β 414-428 probed with native geph from tissue lysate (mouse brain lysate); only the target purified"}}, "note": "Results are given in words; binding and its absence hold for the method and conditions named. Some results given as binding are weak or reduced against the parent protein; the word gives no strength."}
{"binder": "B1", "values": [{"measurement": "binding", "setting": "[1]", "value": "binds"}]}
{"binder": "B2", "values": [{"measurement": "binding", "setting": "[2]", "value": "binds"}]}
